Reference: patent US11183645B2, “Organic thin film and method for manufacturing organic thin film, organic electroluminescence element, display device, illumination device, organic thin film solar cell, thin film transistor, and coating composition” (NIPPON HOSO KYOKAI, priority 2015, dated 2021)

Assay: physchem

C1CN=C2NCCCN2C1 [TBD, 1,5,7-triazabicyclo[4.4.0]deca-5-en]
pKa: 15
